Some of the results follow.
compound: CC[C@@H]1C(=O)N(C)c2cnc(Nc3ccc(C(=O)NC4CCN(C)CC4)cc3OC)nc2N1C1CCCC1; experiment: log2 fold change, soluble protein after heating vs DMSO (PISA); higher = thermal stabilisation; K562 cells, 10 uM, 30 min; active = over 0.2 and 3.5 SD of the protein, either way, in both replicates (recomputed)
Summary of the method: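 K562 cells (2×10^6 cells/mL) were treated with 10 μM compound for 30 min, and aliquots were heated for 3 min over 48°C-58°C. Pooled aliquots were extracted in PBS with 0.5% NP-40 at 4°C, and the supernatant after 21,000xg for 90 min was measured by TMTpro 16plex LC-MS/MS with channel sums equalised. Reported thermal stability, relative to control samples and from duplicates, is a log2 fold change.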

Sequences of proteins named here, by UniProt entry; tags and fusion partners are left off. A change or cut given only in a name is not applied to a line headed by its entry.
UniProt O60911: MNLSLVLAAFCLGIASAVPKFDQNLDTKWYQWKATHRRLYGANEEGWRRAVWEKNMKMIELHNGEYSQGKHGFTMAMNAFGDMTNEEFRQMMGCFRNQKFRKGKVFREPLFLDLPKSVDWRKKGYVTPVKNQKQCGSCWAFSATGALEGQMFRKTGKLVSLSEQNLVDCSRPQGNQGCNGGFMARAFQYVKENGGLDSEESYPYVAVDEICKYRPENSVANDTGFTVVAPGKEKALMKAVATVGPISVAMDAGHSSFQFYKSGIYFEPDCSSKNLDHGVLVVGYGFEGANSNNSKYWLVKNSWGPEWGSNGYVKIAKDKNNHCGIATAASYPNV
UniProt Q5JQC4: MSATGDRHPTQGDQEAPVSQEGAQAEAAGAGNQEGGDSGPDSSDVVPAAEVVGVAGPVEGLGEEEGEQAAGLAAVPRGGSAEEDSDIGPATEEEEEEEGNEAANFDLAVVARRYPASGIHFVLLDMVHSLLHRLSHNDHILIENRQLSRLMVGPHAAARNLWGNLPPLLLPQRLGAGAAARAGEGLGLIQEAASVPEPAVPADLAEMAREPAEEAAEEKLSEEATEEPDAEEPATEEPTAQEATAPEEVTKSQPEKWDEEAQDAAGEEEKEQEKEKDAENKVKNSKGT
UniProt Q6UX04: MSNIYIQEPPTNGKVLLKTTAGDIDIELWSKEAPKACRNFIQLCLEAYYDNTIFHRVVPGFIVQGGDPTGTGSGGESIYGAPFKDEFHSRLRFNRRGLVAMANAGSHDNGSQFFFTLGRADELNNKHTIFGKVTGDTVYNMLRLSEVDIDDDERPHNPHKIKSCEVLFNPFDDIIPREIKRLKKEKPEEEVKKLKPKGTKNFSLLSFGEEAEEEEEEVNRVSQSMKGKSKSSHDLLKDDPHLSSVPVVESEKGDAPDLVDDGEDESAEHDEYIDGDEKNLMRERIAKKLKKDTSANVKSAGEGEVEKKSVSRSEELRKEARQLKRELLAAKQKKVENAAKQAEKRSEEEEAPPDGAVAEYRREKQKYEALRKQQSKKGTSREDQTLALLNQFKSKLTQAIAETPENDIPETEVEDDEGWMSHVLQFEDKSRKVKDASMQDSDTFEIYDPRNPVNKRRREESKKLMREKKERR
UniProt E9PJD7, whole entry, looked up: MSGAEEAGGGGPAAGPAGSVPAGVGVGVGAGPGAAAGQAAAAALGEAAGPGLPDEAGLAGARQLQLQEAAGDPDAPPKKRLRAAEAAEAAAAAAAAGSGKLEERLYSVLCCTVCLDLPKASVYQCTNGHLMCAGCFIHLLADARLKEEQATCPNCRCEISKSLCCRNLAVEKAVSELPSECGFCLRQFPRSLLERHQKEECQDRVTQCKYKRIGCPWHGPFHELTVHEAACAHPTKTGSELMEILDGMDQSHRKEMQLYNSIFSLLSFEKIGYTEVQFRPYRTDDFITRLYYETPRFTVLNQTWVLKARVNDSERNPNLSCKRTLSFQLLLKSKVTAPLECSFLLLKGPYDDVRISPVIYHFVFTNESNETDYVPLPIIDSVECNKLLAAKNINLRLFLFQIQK
UniProt P0DMU9: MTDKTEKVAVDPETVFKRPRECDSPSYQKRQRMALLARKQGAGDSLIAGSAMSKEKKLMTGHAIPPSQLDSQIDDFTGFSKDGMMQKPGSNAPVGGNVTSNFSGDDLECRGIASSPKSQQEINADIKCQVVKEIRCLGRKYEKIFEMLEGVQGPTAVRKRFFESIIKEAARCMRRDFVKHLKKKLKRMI
UniProt P17812: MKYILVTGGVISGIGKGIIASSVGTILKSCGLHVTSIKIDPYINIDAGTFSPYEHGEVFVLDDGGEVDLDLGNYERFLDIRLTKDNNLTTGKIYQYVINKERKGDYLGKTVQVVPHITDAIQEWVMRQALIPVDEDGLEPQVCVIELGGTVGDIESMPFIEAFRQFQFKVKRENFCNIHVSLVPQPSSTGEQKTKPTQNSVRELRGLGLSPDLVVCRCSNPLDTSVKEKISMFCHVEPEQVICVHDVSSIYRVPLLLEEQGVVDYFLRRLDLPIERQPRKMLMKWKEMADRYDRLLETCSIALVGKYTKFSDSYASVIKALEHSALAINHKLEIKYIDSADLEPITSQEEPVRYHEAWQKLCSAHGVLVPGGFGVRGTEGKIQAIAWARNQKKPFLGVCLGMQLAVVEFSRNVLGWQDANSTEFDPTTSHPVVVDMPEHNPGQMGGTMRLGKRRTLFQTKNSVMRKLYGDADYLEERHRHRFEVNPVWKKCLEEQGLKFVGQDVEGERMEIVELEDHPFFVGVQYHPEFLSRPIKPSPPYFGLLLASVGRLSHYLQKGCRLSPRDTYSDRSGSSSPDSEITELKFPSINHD
UniProt P32929, whole entry, looked up: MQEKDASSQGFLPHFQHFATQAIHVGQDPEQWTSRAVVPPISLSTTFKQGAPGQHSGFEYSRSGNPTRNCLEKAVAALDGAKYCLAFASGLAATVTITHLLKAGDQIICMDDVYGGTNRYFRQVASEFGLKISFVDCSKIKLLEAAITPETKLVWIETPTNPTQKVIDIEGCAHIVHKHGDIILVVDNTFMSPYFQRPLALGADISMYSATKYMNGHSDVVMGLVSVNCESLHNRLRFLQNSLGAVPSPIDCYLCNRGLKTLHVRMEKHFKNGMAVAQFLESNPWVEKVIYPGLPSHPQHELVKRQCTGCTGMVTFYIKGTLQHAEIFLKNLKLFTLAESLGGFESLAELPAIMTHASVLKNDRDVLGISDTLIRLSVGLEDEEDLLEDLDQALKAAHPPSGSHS
UniProt P26232: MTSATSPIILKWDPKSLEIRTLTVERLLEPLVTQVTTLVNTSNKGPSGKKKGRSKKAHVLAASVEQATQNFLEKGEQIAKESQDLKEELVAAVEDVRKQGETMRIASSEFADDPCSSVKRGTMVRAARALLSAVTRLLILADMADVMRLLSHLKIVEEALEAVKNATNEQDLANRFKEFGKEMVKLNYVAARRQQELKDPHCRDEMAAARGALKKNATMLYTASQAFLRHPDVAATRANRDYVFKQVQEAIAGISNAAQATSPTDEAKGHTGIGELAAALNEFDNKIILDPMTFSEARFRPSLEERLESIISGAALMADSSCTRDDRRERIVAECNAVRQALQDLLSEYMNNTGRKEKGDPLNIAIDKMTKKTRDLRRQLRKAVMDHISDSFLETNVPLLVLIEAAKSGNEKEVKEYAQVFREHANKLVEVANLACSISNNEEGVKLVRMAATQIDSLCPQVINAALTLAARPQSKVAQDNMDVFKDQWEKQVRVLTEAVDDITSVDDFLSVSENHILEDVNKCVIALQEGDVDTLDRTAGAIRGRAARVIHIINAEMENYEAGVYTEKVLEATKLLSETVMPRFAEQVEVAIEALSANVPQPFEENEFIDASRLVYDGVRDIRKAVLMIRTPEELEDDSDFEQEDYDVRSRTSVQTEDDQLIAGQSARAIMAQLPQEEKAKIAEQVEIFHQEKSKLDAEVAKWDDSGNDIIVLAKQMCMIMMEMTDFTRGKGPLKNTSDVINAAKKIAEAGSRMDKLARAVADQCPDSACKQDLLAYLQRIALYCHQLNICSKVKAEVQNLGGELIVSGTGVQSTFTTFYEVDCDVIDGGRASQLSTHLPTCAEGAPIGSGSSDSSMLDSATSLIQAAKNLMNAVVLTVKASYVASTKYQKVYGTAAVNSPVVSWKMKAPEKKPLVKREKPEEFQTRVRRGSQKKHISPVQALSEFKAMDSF
UniProt P07711: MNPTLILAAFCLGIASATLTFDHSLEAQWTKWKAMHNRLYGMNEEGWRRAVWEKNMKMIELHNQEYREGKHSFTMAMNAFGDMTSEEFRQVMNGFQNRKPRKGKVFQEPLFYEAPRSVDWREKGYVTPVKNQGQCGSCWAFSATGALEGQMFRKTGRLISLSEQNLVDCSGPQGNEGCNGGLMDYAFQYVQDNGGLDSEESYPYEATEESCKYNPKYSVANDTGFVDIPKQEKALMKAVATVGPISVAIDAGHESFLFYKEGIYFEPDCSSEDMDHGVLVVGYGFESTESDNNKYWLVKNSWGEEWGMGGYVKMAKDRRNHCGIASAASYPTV
UniProt P35222, whole entry, looked up: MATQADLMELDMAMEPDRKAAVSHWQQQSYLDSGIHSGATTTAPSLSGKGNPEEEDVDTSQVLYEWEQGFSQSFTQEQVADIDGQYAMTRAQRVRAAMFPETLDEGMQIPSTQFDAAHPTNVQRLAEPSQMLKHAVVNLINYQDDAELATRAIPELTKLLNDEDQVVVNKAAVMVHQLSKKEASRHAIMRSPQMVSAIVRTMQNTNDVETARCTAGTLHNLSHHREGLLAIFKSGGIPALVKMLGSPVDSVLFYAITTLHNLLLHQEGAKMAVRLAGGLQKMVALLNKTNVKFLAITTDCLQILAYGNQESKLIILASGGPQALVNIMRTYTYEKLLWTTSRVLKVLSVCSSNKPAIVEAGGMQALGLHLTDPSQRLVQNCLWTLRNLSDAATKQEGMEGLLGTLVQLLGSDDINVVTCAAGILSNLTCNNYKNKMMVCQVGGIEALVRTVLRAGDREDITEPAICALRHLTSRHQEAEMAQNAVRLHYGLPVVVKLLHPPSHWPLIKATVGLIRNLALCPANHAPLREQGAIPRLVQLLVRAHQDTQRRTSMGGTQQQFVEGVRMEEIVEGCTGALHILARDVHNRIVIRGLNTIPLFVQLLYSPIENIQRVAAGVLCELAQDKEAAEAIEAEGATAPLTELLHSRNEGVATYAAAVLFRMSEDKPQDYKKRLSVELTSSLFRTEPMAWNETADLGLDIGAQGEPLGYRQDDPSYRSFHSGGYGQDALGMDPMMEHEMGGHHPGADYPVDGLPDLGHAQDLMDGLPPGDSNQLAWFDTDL
UniProt O60888: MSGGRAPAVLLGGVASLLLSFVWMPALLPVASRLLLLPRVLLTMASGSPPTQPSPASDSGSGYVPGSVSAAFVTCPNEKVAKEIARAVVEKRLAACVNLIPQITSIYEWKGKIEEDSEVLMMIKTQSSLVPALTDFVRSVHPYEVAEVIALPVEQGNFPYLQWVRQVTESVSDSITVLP
UniProt Q13618, whole entry, looked up: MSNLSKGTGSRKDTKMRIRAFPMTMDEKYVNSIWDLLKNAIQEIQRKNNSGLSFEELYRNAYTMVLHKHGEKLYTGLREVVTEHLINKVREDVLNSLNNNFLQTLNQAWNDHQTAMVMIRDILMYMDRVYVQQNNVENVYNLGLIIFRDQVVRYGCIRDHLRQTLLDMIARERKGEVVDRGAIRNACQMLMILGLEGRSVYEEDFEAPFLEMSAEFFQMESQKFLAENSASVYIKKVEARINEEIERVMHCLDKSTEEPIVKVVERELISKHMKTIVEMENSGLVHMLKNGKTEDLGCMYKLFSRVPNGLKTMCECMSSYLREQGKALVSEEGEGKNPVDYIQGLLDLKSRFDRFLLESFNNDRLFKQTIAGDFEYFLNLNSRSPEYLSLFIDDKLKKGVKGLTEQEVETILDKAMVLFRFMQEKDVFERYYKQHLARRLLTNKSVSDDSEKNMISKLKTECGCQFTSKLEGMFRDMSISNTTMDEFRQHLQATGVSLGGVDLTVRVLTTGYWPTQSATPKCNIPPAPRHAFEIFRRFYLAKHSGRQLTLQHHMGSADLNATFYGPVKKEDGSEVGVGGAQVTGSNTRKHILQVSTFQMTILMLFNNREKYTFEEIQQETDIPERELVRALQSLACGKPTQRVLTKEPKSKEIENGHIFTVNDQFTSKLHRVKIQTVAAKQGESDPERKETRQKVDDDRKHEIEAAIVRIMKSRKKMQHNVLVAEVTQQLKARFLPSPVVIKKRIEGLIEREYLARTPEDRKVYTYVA
UniProt Q13617, whole entry, looked up: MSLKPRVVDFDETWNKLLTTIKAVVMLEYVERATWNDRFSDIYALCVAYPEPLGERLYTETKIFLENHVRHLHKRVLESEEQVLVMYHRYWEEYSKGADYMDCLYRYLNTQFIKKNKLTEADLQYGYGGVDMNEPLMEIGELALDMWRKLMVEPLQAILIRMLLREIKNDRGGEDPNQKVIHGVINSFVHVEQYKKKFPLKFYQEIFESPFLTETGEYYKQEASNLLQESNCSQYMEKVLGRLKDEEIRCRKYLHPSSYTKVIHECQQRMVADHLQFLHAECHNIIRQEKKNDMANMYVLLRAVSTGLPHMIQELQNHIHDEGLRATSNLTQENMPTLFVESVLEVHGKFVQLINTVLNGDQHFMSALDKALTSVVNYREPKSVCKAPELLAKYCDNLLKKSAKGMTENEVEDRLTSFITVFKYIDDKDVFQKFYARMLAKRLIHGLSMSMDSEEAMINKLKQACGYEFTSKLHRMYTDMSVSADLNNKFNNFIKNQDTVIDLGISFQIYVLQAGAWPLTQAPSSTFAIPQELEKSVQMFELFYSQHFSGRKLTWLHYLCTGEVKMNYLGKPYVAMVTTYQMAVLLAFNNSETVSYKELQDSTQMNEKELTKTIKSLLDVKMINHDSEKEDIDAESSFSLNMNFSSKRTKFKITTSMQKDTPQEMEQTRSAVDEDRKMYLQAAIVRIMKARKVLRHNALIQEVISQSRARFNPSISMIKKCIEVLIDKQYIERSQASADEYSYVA
UniProt P01034: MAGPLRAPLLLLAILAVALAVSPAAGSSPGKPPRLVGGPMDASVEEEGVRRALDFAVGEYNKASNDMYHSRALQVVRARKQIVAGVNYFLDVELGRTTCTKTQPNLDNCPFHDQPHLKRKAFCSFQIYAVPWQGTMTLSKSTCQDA

log2 fold change, active:
CTSV (UniProt O60911) -0.719

log2 fold change, inactive:
CT47A1 (UniProt Q5JQC4) -0.047
CWC27 (UniProt Q6UX04) -0.103
CYB5B, A0A499FJ32 0.016
CUX1 isoform 2 (UniProt Q13948) -0.055
CYB5R4 (UniProt Q7L1T6) 0.047
CYHR1 (UniProt E9PJD7) 0.058
DCAF7 (UniProt P61962) 0.048
CT45A10 (UniProt P0DMU9) 0.103
CTPS1 (UniProt P17812) 0.015
CTH (UniProt P32929) 0.044
CTNNA2 (UniProt P26232) 0.035
CUL1 (UniProt Q13616) 0.014
CTSL (UniProt P07711) -0.124
CTNNB1 (UniProt P35222) 0.2
CYB5R3 isoform 3 (UniProt P00387) 0.023
CUTA isoform 2 (UniProt O60888) 0.063
CTIF isoform 2 (UniProt O43310) 0.034
CUL3 (UniProt Q13618) -0.028
CUL2 isoform 2 (UniProt Q13617) -0.023
CST3 (UniProt P01034) 0.219
DAG1 (UniProt Q14118) 0.149
D2HGDH (UniProt Q8N465) 0.061

From the supplement of paper PMC10849652
